Values from PubChem BioAssay AID652259 (Drosophila RNAi Screening Center, 2013).

Assay: 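Knock-downs that push a Wingless-driven reporter up or down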 (primary screen)
System: Drosophila clone 8 imaginal disc epithelial cells
Reagent: long dsRNA against Drosophila genes
Treatment: pathway stimulated by co-transfected Wingless expression plasmid
Measurement: 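Dual luciferase reads per well after Wingless plasmid stimulation: reporter firefly light and Renilla control light; activity is firefly divided by Renilla, a ratio not deposited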
Scale: firefly reporter light: higher = more Wg reporter light, before normalisation; Renilla control light: higher = more transfected or surviving cells
Active means: 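a knock-down is a candidate when at least two out of four statistical tests show it departing from its plate mean; one test alone signals a weak candidate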
Meaning of the calls: active = candidate regulator (raises or lowers reporter); inactive = not a candidate
The deposit covers about 22,000 reagents; shown is an unselected part of those that have a named target and a result. Over the whole deposit, 233 (1.1%) got an active call. 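Light values are raw, unnormalised plate reads; the ratio scores behind the reporter calls were not deposited.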 A plus sign joins genes that one reagent is predicted to hit. No sequences are given here. Not given: the amount of reagent, the time to read-out, the dose of the treatment.

| Gene | DRSC id | firefly reporter light, replicate 1 | firefly reporter light, replicate 2 | Renilla control light, replicate 1 | Renilla control light, replicate 2 | outcome |
| --- | --- | --- | --- | --- | --- | --- |
| CG14671 | DRSC12257 | 17154 | – | 4315 | – | inactive |
| CG13102 + Rcd-1r | DRSC03266 | 2733 | 7382 | 979 | 4144 | inactive |
| CG13117 | DRSC02215 | 1677 | 4976 | 768 | 2672 | inactive |
| Cpr49Ac | DRSC07199 | 13648 | – | 1990 | – | inactive |
| CG30340 | DRSC05167 | 16146 | – | 6840 | – | inactive |
| PK2-R1 | DRSC16447 | 11851 | – | 2493 | – | inactive |
| CG3625 | DRSC00008 | 23433 | – | 14417 | – | inactive |
| CG3625 | DRSC00621 | 8257 | – | 3588 | – | inactive |
| CG10841 | DRSC14271 | 10556 | – | 4455 | – | inactive |
| CG42362 + CG42363 | DRSC04265 | 9451 | – | 1972 | – | inactive |
| Rpt6R | DRSC15431 | 7588 | – | 3977 | – | inactive |
| EMC4 | DRSC11638 | 10704 | – | 3394 | – | inactive |
| Rtca | DRSC18517 | 2839 | 6729 | 1264 | 2870 | inactive |
| Msr-110 | DRSC11227 | 7808 | – | 1705 | – | inactive |
| mAcon1 | DRSC01853 | 2644 | 6212 | 640 | 2528 | inactive |
| mthl9 | DRSC08506 | 5136 | – | 2522 | – | inactive |
| Asciz | DRSC08421 | 4662 | – | 1888 | – | inactive |
| CG2218 | DRSC15428 | 3264 | 5760 | 1275 | 1384 | inactive |
| Gr59c | DRSC04185 | 3504 | 6016 | 778 | 2392 | inactive |
| Rlb1 | DRSC16826 | 13859 | – | 3738 | – | inactive |
| Cnx14D | DRSC20214 | 25832 | – | 11312 | – | inactive |
| CG15642 | DRSC19678 | 17257 | – | 8141 | – | inactive |
| CG34011 | DRSC00888 | 11064 | – | 6308 | – | inactive |
| RNaseZ | DRSC06845 | 3226 | 5264 | 808 | 2186 | inactive |
| Cyp6u1 | DRSC05015 | 9843 | – | 3033 | – | inactive |
| CG7492 | DRSC10855 | 3104 | – | 1542 | – | inactive |
| TpnC73F | DRSC11307 | 6946 | – | 2613 | – | inactive |
| dind | DRSC16294 | 1962 | 5029 | 1021 | 992 | inactive |
| CG42538 | DRSC09412 | 6148 | – | 2087 | – | inactive |
| slp1 | DRSC00835 | 7554 | – | 4889 | – | inactive |
| CG33463 | DRSC22915 | 3.65e5 | 3.86e5 | 1.54e5 | 1.22e5 | inactive |
| Srx | DRSC20005 | 21149 | – | 9885 | – | inactive |
| CG9782 | DRSC19145 | 4240 | – | 899 | – | inactive |
| CG9782 | DRSC20209 | 26897 | – | 10744 | – | inactive |
| Vsx2 | DRSC17397 | 2465 | – | 736 | – | inactive |
| Vsx2 | DRSC18087 | 13328 | – | 3728 | – | inactive |
| Vsx2 | DRSC18088 | 16752 | – | 7744 | – | inactive |
| Vsx2 | DRSC18089 | 28304 | – | 12916 | – | inactive |
| Fbw5 | DRSC03146 | 2978 | 6336 | 884 | 2624 | inactive |
| CG9933 | DRSC03276 | 2995 | 5426 | 1021 | 2109 | inactive |
| CG31266 | DRSC15747 | 15190 | – | 3625 | – | inactive |
| Pur-alpha | DRSC17166 | 3191 | 9211 | 1329 | 3530 | inactive |
| NiPp1 | DRSC07307 | 13904 | – | 5400 | – | inactive |
| Cht7 + tRNA:Cys-GCA-1-4 + tRNA:Lys-CTT-1-13 | DRSC08021 | 6034 | – | 2746 | – | inactive |
| CG3306 | DRSC10357 | 2620 | – | 1173 | – | inactive |
| CG31676 | DRSC02387 | 3108 | 8504 | 1060 | 3388 | inactive |
| CG45002 | DRSC20144 | 19739 | – | 10757 | – | inactive |
| CG1529 | DRSC20515 | 18880 | – | 8545 | – | inactive |
| CG17931 + CG42446 | DRSC15293 | 21170 | – | 6304 | – | inactive |
